# Data taken from patent US8513286B2, “Iminipyridine derivatives and their uses as microbiocides” (Syngenta Crop Protection LLC, priority 2007, dated 2013).
# Some entries share one result that the patent states for a list of compounds.
# System: Magnaporthe grisea (syn. Pyricularia oryzae)
# Format: in vivo
# Conditions: application rate 200 ppm; rice leaf segments; assessed 5 days after inoculation; 0=no control, 100%=complete control
row,Compound,"preventive fungicidal activity, percent efficacy relative to untreated infected control"
1,CC(C)c1cc(Oc2ccc(Cl)c(Cl)c2)nc(C(C)C)c1/N=C/N(C)C [P.05],at least 50%
2,CCN/C=N/c1cnc(Oc2ccc(Cl)c(C(F)(F)F)c2)c(C)c1 [P.08],at least 50%
3,Cc1cc(/N=C/N(C)C)cnc1Oc1ccc(Cl)c(C(F)(F)F)c1 [P.09],at least 50%
